Reference: PMC9445035
Results are given in words; binding and its absence hold for the method and conditions named. In cells and extracts the contact can be indirect.

Target: LDB1ΔLID
Test: co-IP; Cos7 cells co-transfected with both proteins, lysed 72 h later; lysate incubated overnight at 4 °C with magnetic beads carrying HA or FLAG antibody (IgG isotype controls); lysis and wash buffer 20 mM Hepes pH 7.4, 100 mM KCl, 2 mM MgCl2, 1% Triton X-100; Western blot for MTG8

B1: MTG8 (protein, UniProt Q61909 1-577)
chain: MPDRTEKHSTMPDSPVDVKTQSRLTPPAMPPPPTTQGAPRTSSFTPTTLTNGTSHSPTALNGAPSPPNGFSNGPSSSSSSSLANQQLPPACGARQLSKLKRFLTTLQQFGNDISPEIGERVRTLVLGLVNSTLTIEEFHSKLQEATNFPLRPFVIPFLKANLPLLQRELLHCARLAKQNPAQYLAQHEQLLLDASTTSPVDSSELLLDVNENGKRRTPDRTKENGFDREPLHSEHPSKRPCTISPGQRYSPNNGLSYQPNGLPHPTPPPPQHYRLDDMAIAHHYRDSYRHPSHRDLRDRNRPMGLHGTRQEEMIDHRLTDREWAEEWKHLDHLLNCIMDMVEKTRRSLTVLRRCQEADREELNYWIRRYSDAEDLKKGGSSSSSHSRQQSPVNPDPVALDAHREFLHRPASGYVPEEIWKKAEEAVNEVKRQAMTELQKAVSEAERKAHDMITTERAKMERTVAEAKRQAAEDALAVINQQEDSSESCWNCGRKASETCSGCNTARYCGSFCQHKDWEKHHHICGQTLQAPQQGDTPAVSSSVTPSSGAGSPMDTPPAATPRSTTPGTPSTIETTPR
  binding: no binding
